Consider 3 sequences from paper PMC6898720.

Sequences of proteins named here, by UniProt entry; tags and fusion partners are left off. A change or cut given only in a name is not applied to a line headed by its entry.
UniProt P25490, whole entry: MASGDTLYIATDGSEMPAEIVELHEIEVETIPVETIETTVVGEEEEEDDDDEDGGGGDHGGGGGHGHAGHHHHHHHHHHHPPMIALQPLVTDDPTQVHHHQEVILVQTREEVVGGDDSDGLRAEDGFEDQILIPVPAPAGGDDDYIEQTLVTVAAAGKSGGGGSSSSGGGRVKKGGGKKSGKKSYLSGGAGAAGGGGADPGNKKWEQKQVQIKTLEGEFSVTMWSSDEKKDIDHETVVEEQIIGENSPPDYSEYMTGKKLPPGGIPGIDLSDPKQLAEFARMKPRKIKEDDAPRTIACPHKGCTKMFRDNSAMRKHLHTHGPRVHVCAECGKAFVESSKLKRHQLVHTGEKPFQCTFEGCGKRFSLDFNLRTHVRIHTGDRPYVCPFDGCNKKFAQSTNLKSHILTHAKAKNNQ
UniProt P08047, whole entry: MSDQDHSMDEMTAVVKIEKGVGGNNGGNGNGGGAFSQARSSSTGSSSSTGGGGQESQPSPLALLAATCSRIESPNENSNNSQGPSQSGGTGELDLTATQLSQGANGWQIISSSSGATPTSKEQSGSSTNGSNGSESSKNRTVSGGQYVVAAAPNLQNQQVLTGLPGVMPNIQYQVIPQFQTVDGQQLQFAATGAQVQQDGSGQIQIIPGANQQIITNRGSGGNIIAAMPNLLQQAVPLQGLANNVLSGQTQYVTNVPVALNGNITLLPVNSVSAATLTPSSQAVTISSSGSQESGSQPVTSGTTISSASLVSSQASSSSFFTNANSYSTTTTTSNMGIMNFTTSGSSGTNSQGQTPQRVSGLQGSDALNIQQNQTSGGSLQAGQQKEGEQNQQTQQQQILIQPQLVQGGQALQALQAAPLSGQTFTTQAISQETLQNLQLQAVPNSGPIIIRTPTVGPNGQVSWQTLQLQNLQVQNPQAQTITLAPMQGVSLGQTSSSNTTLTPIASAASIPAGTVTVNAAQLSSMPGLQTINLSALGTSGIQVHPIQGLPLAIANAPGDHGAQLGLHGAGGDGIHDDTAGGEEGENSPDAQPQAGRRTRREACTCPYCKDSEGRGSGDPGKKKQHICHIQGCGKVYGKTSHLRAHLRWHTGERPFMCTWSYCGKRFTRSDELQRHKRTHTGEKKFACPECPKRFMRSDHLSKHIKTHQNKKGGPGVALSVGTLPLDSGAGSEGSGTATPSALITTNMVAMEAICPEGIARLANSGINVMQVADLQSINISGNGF
UniProt Q02447: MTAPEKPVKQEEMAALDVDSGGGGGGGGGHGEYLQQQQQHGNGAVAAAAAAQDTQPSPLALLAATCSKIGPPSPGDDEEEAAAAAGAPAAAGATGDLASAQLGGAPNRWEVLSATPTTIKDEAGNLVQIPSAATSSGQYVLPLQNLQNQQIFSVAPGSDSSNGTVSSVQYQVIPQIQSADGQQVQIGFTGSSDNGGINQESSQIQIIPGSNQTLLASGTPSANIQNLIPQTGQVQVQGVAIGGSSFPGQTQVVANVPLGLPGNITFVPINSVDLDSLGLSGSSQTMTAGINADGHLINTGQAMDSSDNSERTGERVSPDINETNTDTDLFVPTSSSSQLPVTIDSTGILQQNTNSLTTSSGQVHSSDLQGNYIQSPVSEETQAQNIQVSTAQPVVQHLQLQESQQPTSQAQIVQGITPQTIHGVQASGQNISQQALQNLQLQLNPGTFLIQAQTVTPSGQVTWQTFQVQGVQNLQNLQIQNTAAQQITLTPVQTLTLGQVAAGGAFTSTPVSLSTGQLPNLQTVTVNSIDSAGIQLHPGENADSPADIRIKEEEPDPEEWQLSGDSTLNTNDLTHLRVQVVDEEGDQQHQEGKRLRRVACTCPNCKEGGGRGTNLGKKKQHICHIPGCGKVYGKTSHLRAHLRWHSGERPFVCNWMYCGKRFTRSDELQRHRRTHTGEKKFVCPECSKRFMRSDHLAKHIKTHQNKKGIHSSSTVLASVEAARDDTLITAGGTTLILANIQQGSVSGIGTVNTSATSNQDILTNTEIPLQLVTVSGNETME

The exact form of at least one protein or probe is not confirmed. At least one result comes from cells or an extract, where the contact may be indirect. For some assays here: A negative result means that nothing was seen under these conditions. At least one verdict rests on a figure or table, not on a statement of the authors.

One series concerns the target YY1 (UniProt P25490). Briefly: EMSA. The settings on record: Myc or Ubwt transfected HeLa nuclear extract, comparable bands; EMSA: 5 ug HeLa nuclear extract, 3 ug poly(dI-dC), 10 min preincubation on ice, 4 nM probe, 30 min; protein in an extract; label: 5'-32P. A general note: A gel shift assay detects complexes by their altered migration in electrophoresis.
For series [1], the target named is Sp1 (UniProt P08047). As to the kind of experiment: competition with a labelled probe. The settings on record: 50-fold excess cold mutant did not prevent complexes on N1; EMSA: 5 ug HeLa nuclear extract, 3 ug poly(dI-dC), 10 min preincubation on ice, 4 nM probe, 30 min; protein in an extract; label: unlabeled competitor.
In series [2] the target is Sp3 (UniProt Q02447). Briefly: competition with a labelled probe. The settings on record: 50-fold excess cold mutant did not prevent complexes on N1; EMSA: 5 ug HeLa nuclear extract, 3 ug poly(dI-dC), 10 min preincubation on ice, 4 nM probe, 30 min; protein in an extract; label: unlabeled competitor.
Series [3] addresses Sp1 (UniProt P08047). Briefly: EMSA. The settings on record: Myc or Ubwt transfected HeLa nuclear extract, no difference, complexes competed by 50x cold wild type; EMSA: 5 ug HeLa nuclear extract, 3 ug poly(dI-dC), 10 min preincubation on ice, 4 nM probe, 30 min; protein in an extract; label: 5'-32P (probe), unlabeled as competitor.
Series [4] addresses Sp3 (UniProt Q02447). As to the kind of experiment: EMSA. The following applies: Myc or Ubwt transfected HeLa nuclear extract, no difference, complexes competed by 50x cold wild type; EMSA: 5 ug HeLa nuclear extract, 3 ug poly(dI-dC), 10 min preincubation on ice, 4 nM probe, 30 min; protein in an extract; label: 5'-32P (probe), unlabeled as competitor.

Consider “AGCAAAATGGCGGCTGTTCCCGAGTCT (double strand) [YY1 intron probe]”, for which the binding result with YY1 is “binds”. Take “TTTTGGAGAATCCCGCGGGCGCCTACGTCCTCACGGCGAG (double strand) [Sp1_mut (human UbCmut2x)]”: the binding result in the series with Sp1 [1] and in the series with Sp3 [2] was “no binding” each time. For the sequence “TTTTGGCGCCTCCCGCGGGCGCCCCCCTCCTCACGGCGAG (double strand) [Sp1_wt (hUBC Sp1, -319/-280)]”, the binding result with Sp1 [3] and with Sp3 [4] was “binds” each time.
